# Experimental data taken from article PMC7178969.
# Sequences of proteins named here, by UniProt entry; tags and fusion partners are left off. A change or cut given only in a name is not applied to a line headed by its entry.
# UniProt P41212: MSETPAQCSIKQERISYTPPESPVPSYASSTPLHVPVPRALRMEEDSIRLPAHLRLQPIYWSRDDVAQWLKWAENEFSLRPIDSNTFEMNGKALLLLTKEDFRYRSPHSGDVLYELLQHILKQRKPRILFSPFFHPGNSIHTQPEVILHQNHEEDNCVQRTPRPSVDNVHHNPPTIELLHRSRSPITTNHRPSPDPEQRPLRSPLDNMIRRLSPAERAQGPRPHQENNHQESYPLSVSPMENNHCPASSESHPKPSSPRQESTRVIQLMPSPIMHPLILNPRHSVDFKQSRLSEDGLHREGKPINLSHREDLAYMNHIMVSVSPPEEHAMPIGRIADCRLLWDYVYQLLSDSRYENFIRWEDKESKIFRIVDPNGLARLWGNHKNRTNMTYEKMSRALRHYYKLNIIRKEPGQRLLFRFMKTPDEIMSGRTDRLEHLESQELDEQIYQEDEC
# UniProt P46109: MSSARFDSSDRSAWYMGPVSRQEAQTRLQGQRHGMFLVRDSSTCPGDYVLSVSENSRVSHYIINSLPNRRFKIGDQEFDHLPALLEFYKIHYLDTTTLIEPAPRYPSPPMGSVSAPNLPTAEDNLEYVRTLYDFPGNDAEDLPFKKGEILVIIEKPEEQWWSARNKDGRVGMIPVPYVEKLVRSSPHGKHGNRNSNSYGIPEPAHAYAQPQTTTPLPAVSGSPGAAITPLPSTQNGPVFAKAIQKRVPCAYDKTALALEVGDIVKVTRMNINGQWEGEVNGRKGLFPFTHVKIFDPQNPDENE
# Results are given in words; binding and its absence hold for the method and conditions named. In cells and extracts the contact can be indirect. Some binding calls cover weakened binding; strength is not graded here.
# Experiments:
# Test in all cases: co-IP; 500 ug total protein from HCCLM3-PCDH-CRKL or HCCLM3-PCDH-NC cells in RIPA buffer; anti-CRKL, anti-ETV6 or nonspecific anti-rabbit IgG 1 h at 4 C; protein A/G agarose beads overnight at 4 C; washed 3 times with RIPA; Western blot
# [1] = target: E-Twenty Six (ETS) variant gene 6 (ETV6) (human (endogenous in HCCLM3)) (UniProt P41212)
# [2] = target: CRKL overexpressed from PCDH-EF1-MCS-T2A-Puro-CRKL in HCCLM3 cells (UniProt P46109)
# [3] = target: CRKL (v-crk sarcoma virus CT10 oncogene homologue (avian)-like), endogenous in HCCLM3-PCDH cells (human (endogenous in HCCLM3)) (UniProt P46109)
Substance,binding [1],binding [2],binding [3]
"CRKL (v-crk sarcoma virus CT10 oncogene homologue (avian)-like), endogenous in HCCLM3-PCDH cells (from UniProt P46109 1-303)",binds,–,–
CRKL overexpressed from PCDH-EF1-MCS-T2A-Puro-CRKL in HCCLM3 cells (from UniProt P46109 1-303),binds,–,–
E-Twenty Six (ETS) variant gene 6 (ETV6) (from UniProt P41212 1-452),–,binds,binds
